This assay deals with LHR C-terminally fused to the LgBiT nanoluciferase portion (human) (UniProt P22888). The assay is described as follows: split reporter.

The chains behind the UniProt entries cited, without tags or fusion partners. Residues count along the entry.
UniProt P22888, residues 27-699: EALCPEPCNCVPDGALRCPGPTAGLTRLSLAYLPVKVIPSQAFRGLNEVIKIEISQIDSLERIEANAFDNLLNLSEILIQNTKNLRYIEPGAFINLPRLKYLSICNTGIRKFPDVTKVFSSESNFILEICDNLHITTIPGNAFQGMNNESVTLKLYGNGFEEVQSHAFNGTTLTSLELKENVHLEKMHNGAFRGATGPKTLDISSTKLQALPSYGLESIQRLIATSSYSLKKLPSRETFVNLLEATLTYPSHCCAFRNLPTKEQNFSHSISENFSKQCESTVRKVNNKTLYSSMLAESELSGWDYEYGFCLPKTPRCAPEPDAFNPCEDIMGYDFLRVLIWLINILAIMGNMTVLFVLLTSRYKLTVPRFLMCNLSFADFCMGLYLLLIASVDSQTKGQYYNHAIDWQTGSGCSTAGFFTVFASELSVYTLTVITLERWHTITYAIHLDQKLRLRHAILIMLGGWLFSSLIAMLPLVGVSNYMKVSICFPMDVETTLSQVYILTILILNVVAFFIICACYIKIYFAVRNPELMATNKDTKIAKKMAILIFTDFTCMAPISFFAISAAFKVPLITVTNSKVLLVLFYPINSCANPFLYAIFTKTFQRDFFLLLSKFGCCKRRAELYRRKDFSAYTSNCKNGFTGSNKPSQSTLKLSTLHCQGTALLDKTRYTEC
UniProt P63092: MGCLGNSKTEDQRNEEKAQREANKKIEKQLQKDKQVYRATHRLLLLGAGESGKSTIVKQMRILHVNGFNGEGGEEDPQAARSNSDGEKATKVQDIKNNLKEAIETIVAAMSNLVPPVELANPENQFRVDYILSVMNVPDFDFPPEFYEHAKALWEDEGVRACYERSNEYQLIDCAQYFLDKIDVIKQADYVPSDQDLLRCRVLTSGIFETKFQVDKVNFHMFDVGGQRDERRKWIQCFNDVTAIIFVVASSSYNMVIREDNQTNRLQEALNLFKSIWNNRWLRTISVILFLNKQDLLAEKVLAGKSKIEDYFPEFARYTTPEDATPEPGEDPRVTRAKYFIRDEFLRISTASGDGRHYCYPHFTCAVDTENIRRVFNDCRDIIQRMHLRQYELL

We go through one substance from publication doi:10.1101/2025.04.30.651471.

No constants are given. Whether binding was seen depends on the method and setting. In cells and extracts the contact can be indirect. Some entries that bind do so weakly or less than the wild type.

Regarding “endogenous Gαs (from UniProt P63092 1-394)”, the binding result was “binds”.
